Results from the supplement of paper PMC10849652.
Some of the results follow.

Chains of the proteins cited; added tags and fusions are not shown. Lines headed by an entry give the natural chain unless they say otherwise; changes in a name come on top.
UniProt Q9NU23: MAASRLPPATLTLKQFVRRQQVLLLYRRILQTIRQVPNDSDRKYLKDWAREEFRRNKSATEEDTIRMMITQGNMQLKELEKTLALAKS
UniProt O15479: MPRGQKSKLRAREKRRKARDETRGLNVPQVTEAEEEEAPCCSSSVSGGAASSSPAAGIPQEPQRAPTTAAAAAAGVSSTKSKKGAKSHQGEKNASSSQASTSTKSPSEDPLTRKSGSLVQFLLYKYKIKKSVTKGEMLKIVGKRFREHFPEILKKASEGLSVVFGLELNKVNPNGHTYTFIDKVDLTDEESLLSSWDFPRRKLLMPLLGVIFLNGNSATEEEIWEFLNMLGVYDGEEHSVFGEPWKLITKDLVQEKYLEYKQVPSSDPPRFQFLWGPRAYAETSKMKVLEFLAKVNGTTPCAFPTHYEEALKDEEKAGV
UniProt P46821: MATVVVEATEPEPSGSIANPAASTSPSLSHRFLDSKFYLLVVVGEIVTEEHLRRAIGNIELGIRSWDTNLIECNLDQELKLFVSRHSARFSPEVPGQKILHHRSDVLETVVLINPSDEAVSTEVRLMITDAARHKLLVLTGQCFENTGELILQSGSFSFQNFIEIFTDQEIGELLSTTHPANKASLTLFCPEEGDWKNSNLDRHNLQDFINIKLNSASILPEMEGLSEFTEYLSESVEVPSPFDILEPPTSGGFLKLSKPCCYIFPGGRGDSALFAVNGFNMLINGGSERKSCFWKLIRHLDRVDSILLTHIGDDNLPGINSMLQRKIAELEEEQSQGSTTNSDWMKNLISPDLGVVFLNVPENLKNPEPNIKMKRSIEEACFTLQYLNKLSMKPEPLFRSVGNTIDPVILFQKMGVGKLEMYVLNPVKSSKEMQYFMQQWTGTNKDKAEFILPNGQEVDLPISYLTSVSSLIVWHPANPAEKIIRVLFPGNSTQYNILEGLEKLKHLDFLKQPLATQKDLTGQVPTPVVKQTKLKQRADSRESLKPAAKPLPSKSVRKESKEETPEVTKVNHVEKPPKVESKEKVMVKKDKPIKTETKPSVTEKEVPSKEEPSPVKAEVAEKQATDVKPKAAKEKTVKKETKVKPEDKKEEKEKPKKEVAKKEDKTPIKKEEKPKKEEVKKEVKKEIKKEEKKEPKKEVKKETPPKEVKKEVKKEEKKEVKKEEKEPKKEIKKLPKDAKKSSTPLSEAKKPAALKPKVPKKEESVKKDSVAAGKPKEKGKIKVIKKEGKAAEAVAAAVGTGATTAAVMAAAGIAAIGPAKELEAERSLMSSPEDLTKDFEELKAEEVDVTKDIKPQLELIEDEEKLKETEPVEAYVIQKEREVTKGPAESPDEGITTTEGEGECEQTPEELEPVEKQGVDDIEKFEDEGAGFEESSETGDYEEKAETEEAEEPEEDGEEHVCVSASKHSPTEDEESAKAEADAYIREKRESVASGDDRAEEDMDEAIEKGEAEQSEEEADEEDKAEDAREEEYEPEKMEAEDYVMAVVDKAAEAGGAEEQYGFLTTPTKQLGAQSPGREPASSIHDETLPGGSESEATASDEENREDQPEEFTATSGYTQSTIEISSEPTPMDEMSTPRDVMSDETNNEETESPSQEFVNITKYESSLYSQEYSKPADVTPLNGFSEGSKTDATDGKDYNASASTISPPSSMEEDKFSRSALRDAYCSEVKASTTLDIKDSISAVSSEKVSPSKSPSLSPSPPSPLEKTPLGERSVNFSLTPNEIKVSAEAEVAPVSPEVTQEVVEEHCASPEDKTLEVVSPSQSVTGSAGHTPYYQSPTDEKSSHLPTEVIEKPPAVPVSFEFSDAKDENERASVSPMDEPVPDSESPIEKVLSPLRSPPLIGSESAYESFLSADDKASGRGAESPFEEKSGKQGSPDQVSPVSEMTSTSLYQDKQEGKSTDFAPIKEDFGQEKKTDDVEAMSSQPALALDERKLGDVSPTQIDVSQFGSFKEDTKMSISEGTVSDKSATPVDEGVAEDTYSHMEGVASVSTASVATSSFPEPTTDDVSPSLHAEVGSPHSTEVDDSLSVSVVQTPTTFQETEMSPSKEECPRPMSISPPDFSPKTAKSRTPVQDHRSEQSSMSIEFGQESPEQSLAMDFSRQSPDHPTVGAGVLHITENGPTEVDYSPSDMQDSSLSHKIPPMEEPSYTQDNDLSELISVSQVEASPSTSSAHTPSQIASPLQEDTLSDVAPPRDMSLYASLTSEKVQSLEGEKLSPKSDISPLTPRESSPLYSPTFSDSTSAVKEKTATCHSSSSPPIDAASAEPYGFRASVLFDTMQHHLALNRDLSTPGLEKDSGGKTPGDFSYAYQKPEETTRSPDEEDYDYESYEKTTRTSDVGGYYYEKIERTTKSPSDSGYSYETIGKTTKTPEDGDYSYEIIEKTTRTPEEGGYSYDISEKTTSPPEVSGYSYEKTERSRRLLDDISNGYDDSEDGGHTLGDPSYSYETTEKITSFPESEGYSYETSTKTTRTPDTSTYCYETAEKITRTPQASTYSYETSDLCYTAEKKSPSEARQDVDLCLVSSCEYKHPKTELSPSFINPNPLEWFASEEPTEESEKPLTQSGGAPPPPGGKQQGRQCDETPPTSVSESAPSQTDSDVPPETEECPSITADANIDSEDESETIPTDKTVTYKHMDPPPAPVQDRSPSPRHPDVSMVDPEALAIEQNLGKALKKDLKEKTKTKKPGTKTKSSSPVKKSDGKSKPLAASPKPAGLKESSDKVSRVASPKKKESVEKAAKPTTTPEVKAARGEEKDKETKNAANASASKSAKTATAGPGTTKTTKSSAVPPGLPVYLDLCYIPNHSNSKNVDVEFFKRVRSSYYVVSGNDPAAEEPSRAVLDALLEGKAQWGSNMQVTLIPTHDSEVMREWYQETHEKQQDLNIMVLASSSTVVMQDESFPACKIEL
UniProt Q9UNF1: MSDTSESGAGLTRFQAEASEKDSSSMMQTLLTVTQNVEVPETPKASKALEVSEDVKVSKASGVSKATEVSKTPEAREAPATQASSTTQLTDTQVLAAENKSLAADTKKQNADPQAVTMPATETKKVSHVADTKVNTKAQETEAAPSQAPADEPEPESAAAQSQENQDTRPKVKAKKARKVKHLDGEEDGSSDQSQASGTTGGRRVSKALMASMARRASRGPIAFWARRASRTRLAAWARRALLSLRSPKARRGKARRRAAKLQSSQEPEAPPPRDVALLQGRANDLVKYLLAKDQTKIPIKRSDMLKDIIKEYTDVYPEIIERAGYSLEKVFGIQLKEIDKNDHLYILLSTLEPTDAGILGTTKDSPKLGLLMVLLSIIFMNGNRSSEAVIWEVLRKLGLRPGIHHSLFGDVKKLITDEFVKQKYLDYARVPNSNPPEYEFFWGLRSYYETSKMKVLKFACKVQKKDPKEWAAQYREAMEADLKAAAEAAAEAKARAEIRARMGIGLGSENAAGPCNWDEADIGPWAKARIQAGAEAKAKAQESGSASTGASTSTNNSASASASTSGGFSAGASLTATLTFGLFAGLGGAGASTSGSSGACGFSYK
UniProt Q8IWC1: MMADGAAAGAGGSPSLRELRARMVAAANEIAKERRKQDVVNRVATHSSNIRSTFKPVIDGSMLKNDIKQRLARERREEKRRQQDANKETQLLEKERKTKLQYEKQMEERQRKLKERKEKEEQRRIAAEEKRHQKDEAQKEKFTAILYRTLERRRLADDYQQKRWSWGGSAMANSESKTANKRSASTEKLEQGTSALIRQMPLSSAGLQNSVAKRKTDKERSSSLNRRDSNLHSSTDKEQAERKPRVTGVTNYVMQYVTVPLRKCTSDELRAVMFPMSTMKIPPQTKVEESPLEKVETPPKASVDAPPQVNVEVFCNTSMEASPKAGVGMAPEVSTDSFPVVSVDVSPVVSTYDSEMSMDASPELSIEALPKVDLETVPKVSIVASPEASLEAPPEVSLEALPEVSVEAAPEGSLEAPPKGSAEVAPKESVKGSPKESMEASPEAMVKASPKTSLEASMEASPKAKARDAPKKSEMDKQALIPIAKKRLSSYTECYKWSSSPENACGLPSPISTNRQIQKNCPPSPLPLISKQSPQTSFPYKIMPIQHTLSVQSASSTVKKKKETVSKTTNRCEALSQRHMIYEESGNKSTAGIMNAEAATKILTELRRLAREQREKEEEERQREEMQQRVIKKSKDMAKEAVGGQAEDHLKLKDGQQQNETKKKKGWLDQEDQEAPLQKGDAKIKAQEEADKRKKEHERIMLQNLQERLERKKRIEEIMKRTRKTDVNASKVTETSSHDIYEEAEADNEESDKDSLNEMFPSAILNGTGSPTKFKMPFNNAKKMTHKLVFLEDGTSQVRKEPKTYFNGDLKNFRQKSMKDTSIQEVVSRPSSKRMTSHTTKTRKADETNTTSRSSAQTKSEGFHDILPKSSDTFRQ
UniProt Q16644, whole entry, looked up: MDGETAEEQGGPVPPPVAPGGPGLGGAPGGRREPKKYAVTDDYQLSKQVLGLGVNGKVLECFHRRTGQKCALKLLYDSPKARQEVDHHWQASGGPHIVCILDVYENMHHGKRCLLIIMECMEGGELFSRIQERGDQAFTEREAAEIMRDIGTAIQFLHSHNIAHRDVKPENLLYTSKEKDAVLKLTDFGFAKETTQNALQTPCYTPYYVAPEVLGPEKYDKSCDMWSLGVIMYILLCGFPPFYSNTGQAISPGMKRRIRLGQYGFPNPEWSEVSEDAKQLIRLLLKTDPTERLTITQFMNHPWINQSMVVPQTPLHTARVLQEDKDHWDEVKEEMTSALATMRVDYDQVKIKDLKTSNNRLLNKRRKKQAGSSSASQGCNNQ
UniProt Q8IW41: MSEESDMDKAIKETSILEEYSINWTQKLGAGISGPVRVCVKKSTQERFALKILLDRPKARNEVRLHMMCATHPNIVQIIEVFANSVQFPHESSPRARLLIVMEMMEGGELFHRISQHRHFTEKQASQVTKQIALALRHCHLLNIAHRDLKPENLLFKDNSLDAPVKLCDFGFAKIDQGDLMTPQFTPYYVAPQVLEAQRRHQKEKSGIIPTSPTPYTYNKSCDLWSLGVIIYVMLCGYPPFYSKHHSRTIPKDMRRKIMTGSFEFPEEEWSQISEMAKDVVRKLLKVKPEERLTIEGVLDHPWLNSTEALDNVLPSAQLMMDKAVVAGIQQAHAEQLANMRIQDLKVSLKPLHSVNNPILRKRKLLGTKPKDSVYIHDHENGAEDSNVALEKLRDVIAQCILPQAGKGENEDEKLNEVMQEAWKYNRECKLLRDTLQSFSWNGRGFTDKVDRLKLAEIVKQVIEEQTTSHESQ
UniProt O95232: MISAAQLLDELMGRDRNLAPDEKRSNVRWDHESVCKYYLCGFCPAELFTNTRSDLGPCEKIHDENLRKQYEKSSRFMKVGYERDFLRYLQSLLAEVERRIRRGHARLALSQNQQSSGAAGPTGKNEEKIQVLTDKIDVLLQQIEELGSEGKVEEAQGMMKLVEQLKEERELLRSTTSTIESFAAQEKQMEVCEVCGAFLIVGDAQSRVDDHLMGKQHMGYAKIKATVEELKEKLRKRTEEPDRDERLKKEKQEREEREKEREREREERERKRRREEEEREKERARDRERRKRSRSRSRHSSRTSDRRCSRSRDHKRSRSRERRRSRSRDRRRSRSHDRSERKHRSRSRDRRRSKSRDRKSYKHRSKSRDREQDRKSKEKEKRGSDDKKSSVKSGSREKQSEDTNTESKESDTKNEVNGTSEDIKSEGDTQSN
UniProt Q96GA3: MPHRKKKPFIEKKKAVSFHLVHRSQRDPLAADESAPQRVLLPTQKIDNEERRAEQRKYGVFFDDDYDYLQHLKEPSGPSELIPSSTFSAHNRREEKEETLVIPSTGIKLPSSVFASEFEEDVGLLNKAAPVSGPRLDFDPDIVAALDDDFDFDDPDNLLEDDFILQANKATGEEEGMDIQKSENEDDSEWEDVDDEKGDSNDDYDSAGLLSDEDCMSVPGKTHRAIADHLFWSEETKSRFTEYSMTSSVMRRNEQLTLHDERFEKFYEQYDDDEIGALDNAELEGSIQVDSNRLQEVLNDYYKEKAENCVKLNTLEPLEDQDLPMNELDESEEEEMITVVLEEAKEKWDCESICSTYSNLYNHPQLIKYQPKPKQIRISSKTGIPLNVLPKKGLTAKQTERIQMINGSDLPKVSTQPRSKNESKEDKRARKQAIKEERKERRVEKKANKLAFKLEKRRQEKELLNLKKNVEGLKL

The targets below were run with C1=CC2=C(C=CC(=C2)/C=C\3/C(=O)NC(=NCC4=CC=CS4)S3)N=C1 (assay: log2 fold change, soluble protein after heating vs DMSO (PISA); higher = thermal stabilisation; K562 lysate, 10 uM; active = over 0.2 and 3.5 SD of the protein, either way, in both replicates (recomputed)).
How it was run: (§1)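 Quantification was by TMTpro 16plex LC-MS/MS with equalised channel sums, applied to the supernatant after 21,000xg for 90 min. Samples were crude K562 extract at 1 mg/mL protein in PBS pH 7.4 with 1 mM MgCl2, treated with 10 μM compound for 30 min, heated for 3 min across 48°C-58°C, pooled and brought to 0.5% NP-40 at 4°C. Values are log-two fold changes in thermal stability relative to solvent controls, from duplicates.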

| Target | log2 fold change |
| --- | --- |
| MAD2L1BP isoform 3 (UniProt Q15013) | inactive: 0.078 |
| LTN1 isoform 3 (UniProt O94822) | inactive: -0.005 |
| LYRM2 (UniProt Q9NU23) | inactive: -0.033 |
| LYSMD3 (UniProt Q7Z3D4) | inactive: 0.069 |
| MAP2K2 (UniProt P36507) | inactive: -0.023 |
| MAGEB2 (UniProt O15479) | inactive: 0.005 |
| MAF1 (UniProt Q9H063) | inactive: -0.046 |
| LYAR (UniProt Q9NX58) | inactive: -0.007 |
| MANBA (UniProt O00462) | inactive: 0.034 |
| MAP1B (UniProt P46821) | inactive: -0.006 |
| LYPLAL1 (UniProt Q5VWZ2) | inactive: 0.003 |
| MADD isoform 4 (UniProt Q8WXG6) | inactive: 0 |
| MAGEC1 (UniProt O60732) | inactive: -0.001 |
| MAGI3 isoform 1 (UniProt Q5TCQ9) | inactive: 0.068 |
| MAN1A2 (UniProt O60476) | inactive: 0.043 |
| LYSMD2 (UniProt Q8IV50) | inactive: 0.005 |
| MAGED2 (UniProt Q9UNF1) | inactive: -0.049 |
| MAPRE2 (UniProt Q15555) | inactive: 0.043 |
| MAP3K20 isoform 2 (UniProt Q9NYL2) | inactive: -0.062 |
| MAT2B (UniProt Q9NZL9) | inactive: -0.014 |

| Target | log2 fold change |
| --- | --- |
| LYSMD1 (UniProt Q96S90) | inactive: -0.018 |
| MAP2K3 isoform 3 (UniProt P46734) | inactive: -0.063 |
| MARK1 (UniProt Q9P0L2) | inactive: 0.029 |
| LUC7L2 (UniProt Q9Y383) | inactive: 0.004 |
| MAP2K1 (UniProt Q02750) | inactive: -0.02 |
| MAP4 isoform 5 (UniProt P27816) | active: -0.495 |
| MAML2 (UniProt Q8IZL2) | inactive: -0.064 |
| MAGEB1 (UniProt P43366) | inactive: -0.004 |
| MAP3K7 (UniProt O43318) | inactive: 0.012 |
| MAP7D3 (UniProt Q8IWC1) | inactive: 0.052 |
| MARCKS (UniProt P29966) | inactive: 0.196 |
| MAPKAPK3 (UniProt Q16644) | inactive: 0.022 |
| LTF (UniProt P02788) | inactive: 0.019 |
| MAPKAPK5 (UniProt Q8IW41) | inactive: 0.12 |
| LUC7L3 (UniProt O95232) | inactive: -0.014 |
| MAGT1 (UniProt Q9H0U3) | inactive: -0.004 |
| LTV1 (UniProt Q96GA3) | inactive: -0.008 |
| LYZ (UniProt P61626) | inactive: -0.099 |
| MAPK8 isoform 3 (UniProt P45983) | inactive: -0.064 |

Each target was assayed with C1=CC2=NC=CN=C2C=C1/C=C/3\C(=O)NC(=O)S3 in the same assay as above.
How it was run: as §1

| Target | log2 fold change |
| --- | --- |
| MAD2L1BP isoform 3 (UniProt Q15013) | inactive: -0.015 |
| LTN1 isoform 3 (UniProt O94822) | inactive: 0.003 |
| LYRM2 (UniProt Q9NU23) | inactive: -0.094 |
| LYSMD3 (UniProt Q7Z3D4) | inactive: 0.05 |
| MAP2K2 (UniProt P36507) | inactive: -0.006 |
| MAGEB2 (UniProt O15479) | inactive: -0.009 |
| MAF1 (UniProt Q9H063) | inactive: -0.05 |
| LYAR (UniProt Q9NX58) | inactive: -0.011 |
| MANBA (UniProt O00462) | inactive: 0.041 |
| MAP1B (UniProt P46821) | inactive: -0.008 |
| LYPLAL1 (UniProt Q5VWZ2) | inactive: -0.006 |
| MADD isoform 4 (UniProt Q8WXG6) | inactive: -0.046 |
| MAGEC1 (UniProt O60732) | inactive: 0.003 |
| MAGI3 isoform 1 (UniProt Q5TCQ9) | inactive: -0.056 |
| MAN1A2 (UniProt O60476) | inactive: 0.025 |
| LYSMD2 (UniProt Q8IV50) | inactive: -0.039 |
| MAGED2 (UniProt Q9UNF1) | inactive: -0.019 |
| MAPRE2 (UniProt Q15555) | inactive: -0.042 |
| MAP3K20 isoform 2 (UniProt Q9NYL2) | inactive: 0.025 |
| MAT2B (UniProt Q9NZL9) | inactive: -0.006 |

| Target | log2 fold change |
| --- | --- |
| LYSMD1 (UniProt Q96S90) | inactive: -0.02 |
| MAP2K3 isoform 3 (UniProt P46734) | inactive: 0.03 |
| MARK1 (UniProt Q9P0L2) | inactive: -0.01 |
| LUC7L2 (UniProt Q9Y383) | inactive: -0.035 |
| MAP2K1 (UniProt Q02750) | inactive: -0.012 |
| MAP4 isoform 5 (UniProt P27816) | inactive: -0.035 |
| MAML2 (UniProt Q8IZL2) | inactive: 0.06 |
| MAGEB1 (UniProt P43366) | inactive: 0.036 |
| MAP3K7 (UniProt O43318) | inactive: -0.02 |
| MAP7D3 (UniProt Q8IWC1) | inactive: -0.023 |
| MARCKS (UniProt P29966) | inactive: 0.044 |
| MAPKAPK3 (UniProt Q16644) | inactive: -0.014 |
| LTF (UniProt P02788) | inactive: 0.15 |
| MAPKAPK5 (UniProt Q8IW41) | inactive: 0.007 |
| LUC7L3 (UniProt O95232) | inactive: -0.044 |
| MAGT1 (UniProt Q9H0U3) | inactive: -0.007 |
| LTV1 (UniProt Q96GA3) | inactive: -0.002 |
| LYZ (UniProt P61626) | inactive: 0 |
| MAPK8 isoform 3 (UniProt P45983) | inactive: -0.045 |
